{"source": "the supplement of paper PMC8728848", "binders": {"B1": {"name": "RbmA (Vibrio cholerae), A0A2H4NFB8 (protein)", "chain": "MSNFKGSIMNKRHYYLASCLALLFSTASYAEVDCELQPVIEANLSLNQNQLASNGGYISSQLGIRNESCETVKFKYWLSIKGPEGIYFPAKAVVGVDTAQQESDALTDGRMLNVTRGFWVPEYMADGKYTVSLQVVAENGEVFKANQEFVKGGDLNSLPELNGLTIDIKNQFGINSVESTGGFVPFTIDLNNGREGEAKVEFWMTAVGPDGLIIPVHSREKWMIIAGNTFSKVRGINFDKSYPAGEYTINAQVVDIVSGERVEQLMTVVKK"}}, "test_in_all_cases": "glycan array binding signal (z-score within array); higher = stronger binding", "settings_in_all_cases": "glycan notation: IUPAC condensed, linker removed", "key": {"Gal(b1-2)Gal": {"molecular_target": "Gal(b1-2)Gal", "outline": "(§1)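 Negative Z-scores can be read as non-binding. The Z-score is calculated within each array and then averaged across arrays of one protein sequence at different concentrations or buffers and across linkers. Arrays, 3228 in all, were curated from the Consortium for Functional Glycomics database and kept only where the protein sequence was available.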"}, "Gal(b1-3)Gal": {"molecular_target": "Gal(b1-3)Gal", "outline": "as §1"}, "Gal(b1-3)Gal(b1-4)GlcNAc": {"molecular_target": "Gal(b1-3)Gal(b1-4)GlcNAc", "outline": "as §1"}, "Gal(b1-3)GalNAc": {"molecular_target": "Gal(b1-3)GalNAc", "outline": "as §1"}, "[1]": {"molecular_target": "Gal(b1-3)GalNAc(a1-3)[Fuc(a1-2)]Gal(b1-4)Glc", "outline": "as §1"}, "[2]": {"molecular_target": "Gal(b1-3)GalNAc(a1-3)[Fuc(a1-2)]Gal(b1-4)GlcNAc", "outline": "as §1"}, "Gal(b1-3)GalNAc(b1-3)Gal": {"molecular_target": "Gal(b1-3)GalNAc(b1-3)Gal", "outline": "as §1"}, "[3]": {"molecular_target": "Gal(b1-3)GalNAc(b1-3)Gal(a1-4)Gal(b1-4)Glc", "outline": "as §1"}, "[4]": {"molecular_target": "Gal(b1-3)GalNAc(b1-4)Gal(b1-4)Glc", "outline": "as §1"}, "[5]": {"molecular_target": "Gal(b1-3)GalNAc(b1-4)[Neu5Ac(a2-3)]Gal(b1-4)Glc", "outline": "as §1"}, "Gal(b1-3)GlcNAc": {"molecular_target": "Gal(b1-3)GlcNAc", "outline": "as §1"}, "[6]": {"molecular_target": "Gal(b1-3)GlcNAc(a1-3)Gal(b1-4)GlcNAc", "outline": "as §1"}, "[7]": {"molecular_target": "Gal(b1-3)GlcNAc(a1-6)Gal(b1-4)GlcNAc", "outline": "as §1"}, "Gal(b1-3)GlcNAc(b1-2)Man": {"molecular_target": "Gal(b1-3)GlcNAc(b1-2)Man", "outline": "as §1"}, "[8]": {"molecular_target": "Gal(b1-3)GlcNAc(b1-2)Man(a1-3)[Gal(b1-3)GlcNAc(b1-2)Man(a1-6)]Man(b1-4)GlcNAc(b1-4)GlcNAc", "outline": "as §1"}, "[9]": {"molecular_target": "Gal(b1-3)GlcNAc(b1-2)Man(a1-3)[Gal(b1-3)GlcNAc(b1-2)Man(a1-6)]Man(b1-4)GlcNAc(b1-4)[Fuc(a1-6)]GlcNAc", "outline": "as §1"}, "[10]": {"molecular_target": "Gal(b1-3)GlcNAc(b1-2)Man(a1-3)[GlcNAc(b1-4)][Gal(b1-3)GlcNAc(b1-2)Man(a1-6)]Man(b1-4)GlcNAc(b1-4)GlcNAc", "outline": "as §1"}, "[11]": {"molecular_target": "Gal(b1-3)GlcNAc(b1-2)[Gal(b1-3)GlcNAc(b1-6)]Man(a1-6)[Gal(b1-3)GlcNAc(b1-2)Man(a1-3)]Man(b1-4)GlcNAc(b1-4)GlcNAc", "outline": "as §1"}, "[12]": {"molecular_target": "Gal(b1-3)GlcNAc(b1-3)Gal(b1-3)GlcNAc", "outline": "as §1"}, "[13]": {"molecular_target": "Gal(b1-3)GlcNAc(b1-3)Gal(b1-4)Glc", "outline": "as §1"}, "[14]": {"molecular_target": "Gal(b1-3)GlcNAc(b1-3)Gal(b1-4)GlcNAc", "outline": "as §1"}, "[15]": {"molecular_target": "Gal(b1-3)GlcNAc(b1-3)Gal(b1-4)GlcNAc(b1-2)Man(a1-3)[Gal(b1-3)GlcNAc(b1-3)Gal(b1-4)GlcNAc(b1-2)Man(a1-6)]Man(b1-4)GlcNAc(b1-4)GlcNAc", "outline": "as §1"}, "[16]": {"molecular_target": "Gal(b1-3)GlcNAc(b1-3)Gal(b1-4)GlcNAc(b1-2)[Gal(b1-3)GlcNAc(b1-3)Gal(b1-4)GlcNAc(b1-6)]Man(a1-6)[Gal(b1-3)GlcNAc(b1-3)Gal(b1-4)GlcNAc(b1-2)Man(a1-3)]Man(b1-4)GlcNAc(b1-4)[Fuc(a1-6)]GlcNAc", "outline": "as §1"}, "[17]": {"molecular_target": "Gal(b1-3)GlcNAc(b1-3)Gal(b1-4)GlcNAc(b1-3)Gal(b1-4)GlcNAc(b1-2)[Gal(b1-3)GlcNAc(b1-3)Gal(b1-4)GlcNAc(b1-3)Gal(b1-4)GlcNAc(b1-6)]Man(a1-6)[Gal(b1-3)GlcNAc(b1-3)Gal(b1-4)GlcNAc(b1-3)Gal(b1-4)GlcNAc(b1-2)Man(a1-3)]Man(b1-4)GlcNAc(b1-4)[Fuc(a1-6)]GlcNAc", "outline": "as §1"}, "[18]": {"molecular_target": "Gal(b1-3)GlcNAc(b1-3)Gal(b1-4)GlcNAc(b1-6)[Gal(b1-3)GlcNAc(b1-3)]Gal(b1-4)Glc", "outline": "as §1"}, "[19]": {"molecular_target": "Gal(b1-3)GlcNAc(b1-3)Gal(b1-4)[Fuc(a1-3)]GlcNAc(b1-6)[Gal(b1-3)GlcNAc(b1-3)]Gal(b1-4)Glc", "outline": "as §1"}, "[20]": {"molecular_target": "Gal(b1-3)GlcNAc(b1-3)GalNAc", "outline": "as §1"}, "[21]": {"molecular_target": "Gal(b1-3)GlcNAc(b1-6)Gal(b1-4)GlcNAc", "outline": "as §1"}, "[22]": {"molecular_target": "Gal(b1-3)GlcNAc(b1-6)GalNAc", "outline": "as §1"}, "[23]": {"molecular_target": "Gal(b1-3)GlcNAc(b1-6)[Gal(b1-3)]GalNAc", "outline": "as §1"}, "Gal(b1-3)GlcNAc6S": {"molecular_target": "Gal(b1-3)GlcNAc6S", "outline": "as §1"}, "[24]": {"molecular_target": "Gal(b1-3)[Fuc(a1-4)]GlcNAc", "outline": "as §1"}, "[25]": {"molecular_target": "Gal(b1-3)[Fuc(a1-4)]GlcNAc(b1-2)Man", "outline": "as §1"}, "[26]": {"molecular_target": "Gal(b1-3)[Fuc(a1-4)]GlcNAc(b1-2)Man(a1-3)[Gal(b1-3)[Fuc(a1-4)]GlcNAc(b1-2)Man(a1-6)]Man(b1-4)GlcNAc(b1-4)[Fuc(a1-6)]GlcNAc", "outline": "as §1"}, "[27]": {"molecular_target": "Gal(b1-3)[Fuc(a1-4)]GlcNAc(b1-3)Gal(b1-3)[Fuc(a1-4)]GlcNAc", "outline": "as §1"}, "[28]": {"molecular_target": "Gal(b1-3)[Fuc(a1-4)]GlcNAc(b1-3)Gal(b1-4)GlcNAc", "outline": "as §1"}, "[29]": {"molecular_target": "Gal(b1-3)[Fuc(a1-4)]GlcNAc(b1-3)Gal(b1-4)[Fuc(a1-3)]GlcNAc", "outline": "as §1"}}, "note": "The other results are listed elsewhere or left out.", "data": [{"binder": "B1", "values": [{"measurement": "glycan array binding signal (z-score)", "setting": "Gal(b1-2)Gal", "result": -0.082}, {"measurement": "glycan array binding signal (z-score)", "setting": "Gal(b1-3)Gal", "result": -0.26}, {"measurement": "glycan array binding signal (z-score)", "setting": "Gal(b1-3)Gal(b1-4)GlcNAc", "result": -0.265}, {"measurement": "glycan array binding signal (z-score)", "setting": "Gal(b1-3)GalNAc", "result": -1.04}, {"measurement": "glycan array binding signal (z-score)", "setting": "[1]", "result": 0.144}, {"measurement": "glycan array binding signal (z-score)", "setting": "[2]", "result": -0.973}, {"measurement": "glycan array binding signal (z-score)", "setting": "Gal(b1-3)GalNAc(b1-3)Gal", "result": -0.362}, {"measurement": "glycan array binding signal (z-score)", "setting": "[3]", "result": -1.19}, {"measurement": "glycan array binding signal (z-score)", "setting": "[4]", "result": 0.503}, {"measurement": "glycan array binding signal (z-score)", "setting": "[5]", "result": -0.855}, {"measurement": "glycan array binding signal (z-score)", "setting": "Gal(b1-3)GlcNAc", "result": -0.559}, {"measurement": "glycan array binding signal (z-score)", "setting": "[6]", "result": -0.24}, {"measurement": "glycan array binding signal (z-score)", "setting": "[7]", "result": -0.287}, {"measurement": "glycan array binding signal (z-score)", "setting": "Gal(b1-3)GlcNAc(b1-2)Man", "result": 0.691}, {"measurement": "glycan array binding signal (z-score)", "setting": "[8]", "result": 0.769}, {"measurement": "glycan array binding signal (z-score)", "setting": "[9]", "result": 1.19}, {"measurement": "glycan array binding signal (z-score)", "setting": "[10]", "result": 0.268}, {"measurement": "glycan array binding signal (z-score)", "setting": "[11]", "result": -0.69}, {"measurement": "glycan array binding signal (z-score)", "setting": "[12]", "result": -0.104}, {"measurement": "glycan array binding signal (z-score)", "setting": "[13]", "result": -0.748}, {"measurement": "glycan array binding signal (z-score)", "setting": "[14]", "result": -0.233}, {"measurement": "glycan array binding signal (z-score)", "setting": "[15]", "result": -0.218}, {"measurement": "glycan array binding signal (z-score)", "setting": "[16]", "result": 1.28}, {"measurement": "glycan array binding signal (z-score)", "setting": "[17]", "result": 0.876}, {"measurement": "glycan array binding signal (z-score)", "setting": "[18]", "result": 0.203}, {"measurement": "glycan array binding signal (z-score)", "setting": "[19]", "result": 1.08}, {"measurement": "glycan array binding signal (z-score)", "setting": "[20]", "result": -0.139}, {"measurement": "glycan array binding signal (z-score)", "setting": "[21]", "result": -0.684}, {"measurement": "glycan array binding signal (z-score)", "setting": "[22]", "result": -0.515}, {"measurement": "glycan array binding signal (z-score)", "setting": "[23]", "result": 1.07}, {"measurement": "glycan array binding signal (z-score)", "setting": "Gal(b1-3)GlcNAc6S", "result": -0.734}, {"measurement": "glycan array binding signal (z-score)", "setting": "[24]", "result": -0.026}, {"measurement": "glycan array binding signal (z-score)", "setting": "[25]", "result": -0.323}, {"measurement": "glycan array binding signal (z-score)", "setting": "[26]", "result": -0.257}, {"measurement": "glycan array binding signal (z-score)", "setting": "[27]", "result": -1.06}, {"measurement": "glycan array binding signal (z-score)", "setting": "[28]", "result": -0.691}, {"measurement": "glycan array binding signal (z-score)", "setting": "[29]", "result": -0.501}]}]}
